Article PMC10967972, “Different Coactivator Recruitment to Human PPARα/δ/γ Ligand-Binding Domains by Eight PPAR Agonists to Treat Nonalcoholic Fatty Liver Disease” (Biomedicines, 2024)
No constants are given. Whether binding was seen depends on the method and setting. Some binding calls cover weakened binding; strength is not graded here.

Tests used:
[1] = target: T1, Human PPARδ ligand-binding domain (AAs 170–441) (human) (UniProt Q03181); assay: FRET or BRET; LANCE Ultra TR-FRET, cell-free, as a1 (Buffer A, 2 h, room temperature); agonist added: pioglitazone, concentration series; response as percent of the full agonist's maximal response; both purified
T1 sequence: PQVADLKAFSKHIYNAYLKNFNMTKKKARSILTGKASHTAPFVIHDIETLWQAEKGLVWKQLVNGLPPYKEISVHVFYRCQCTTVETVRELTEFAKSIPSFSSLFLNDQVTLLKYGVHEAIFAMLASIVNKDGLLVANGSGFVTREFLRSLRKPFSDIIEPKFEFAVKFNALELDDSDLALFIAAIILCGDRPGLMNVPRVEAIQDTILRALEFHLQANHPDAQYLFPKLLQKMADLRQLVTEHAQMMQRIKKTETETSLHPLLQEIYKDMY

[2] = target: T1, Human PPARδ ligand-binding domain (AAs 170–441) (human); assay: FRET or BRET; LANCE Ultra TR-FRET, cell-free, as a1 (Buffer A, 2 h, room temperature); agonist added: saroglitazar, concentration series; response as percent of the full agonist's maximal response; both purified
[3] = target: T1, Human PPARδ ligand-binding domain (AAs 170–441) (human); assay: condition: only with fenofibric acid as the agonist; FRET or BRET; LANCE Ultra TR-FRET, cell-free, as a1 (Buffer A, 2 h, room temperature); agonist added: fenofibric acid, concentration series; response as percent of the full agonist's maximal response; both purified
[4] = target: T1, Human PPARδ ligand-binding domain (AAs 170–441) (human); assay: FRET or BRET; LANCE Ultra TR-FRET, cell-free, as a1 (Buffer A, 2 h, room temperature); agonist added: saroglitazar, concentration series; response as percent of the full agonist's maximal response; both purified; remark: listed apart in the source

binding [3]: no binding
binding [4]: binds weakly
Binder: EAEEPSLLKKLLLAPANTQ (biotin on the N-terminus) [PGC1α coactivator peptide, biotin-… (AA 137–155)]
binding [1]: no binding (condition: with pioglitazone as the agonist)
binding [2]: no binding (condition: with saroglitazar as the agonist)
